No constants are given. Whether binding was seen depends on the method and setting. Some results given as binding are weak or reduced against the parent protein; the word gives no strength.
B1: EGC117 (peptide)
peptide: PLERCPFQNPLWFSHCMEML
B2: EGC122 (peptide)
peptide: RFFMCQVYPSYKWHVCVESW
B3: EGC157 (peptide)
peptide: EFYMCQVYPSELWHVCVDKL
B4: EGC128 (peptide)
peptide: SQVRCPFQNPIWRNHCMELI
B5: EGC99 (peptide)
peptide: CHVSCPFYNPNWWSHCMELM
B6: EGC125 (peptide)
peptide: LEVYCPFENPIWWARCMELM
B7: EGC163 (peptide)
peptide: SQVYCPFHNPIWLAHCMELM
B8: EGC3 (peptide)
peptide: PTLSACMEAKCVLIFL
B9: EGC129 (peptide)
peptide: PKVRCPFQNPIWWSHCMEML
B10: EGC44 (peptide)
peptide: LSWWCRMGWFQEYGECNFLF
B11: EGC13 (peptide)
peptide: GTQECAQDDYFRYWCLRTW
B12: EGC54 (peptide)
peptide: KVMFCWVMWKQCSSPP
B13: EGC156 (peptide)
peptide: GFHMCQVYPSGKWLVCLHPR
B14: EGC150 (peptide)
peptide: SDVYCPFSNPAWWVHCMEML
B15: EGC121 (peptide)
peptide: TFYVCQIYPSGKWHVCVGTC
B16: EGC127 (peptide)
peptide: SRVRCPFQNPIWLAHCMKMT
B17: EGC14 (peptide)
peptide: LDLCMTIERPHRQCPCG
B18: EGC21 (peptide)
peptide: SYWVCLTYFICWPSW
B19: EGC104 (peptide)
peptide: SLVKCPFFNPIWWSHCMELM
B20: EGC161 (peptide)
peptide: SQVRCPFQNPIWYTHCMELL
B21: EGC152 (peptide)
peptide: KFFMCQIYPSLKWHVCVEKL
B22: EGC39 (peptide)
peptide: VQQFVHWMESWNPACFWRM
B23: EGC159 (peptide)
peptide: SSVRCPFQNPIWWSHCMELL
B24: EGC115 (peptide)
peptide: DQVRCPFQNPVWWSHCMYLL
B25: EGC123 (peptide)
peptide: KFLMCRLYPSGKWHVCVETL
B26: EGC106 (peptide)
peptide: WSHACIVYNDKIMGACTCLT
B27: EGC134 (peptide)
peptide: RFVMCQVYPSLNWHVCVQTL
B28: EGC145 (peptide)
peptide: KFIMCQVYPSERWHVCLETM
B29: EGC100 (peptide)
peptide: FLEMCMDWNPKTWCYCMEWM
B30: EGC151 (peptide)
peptide: TQVYCPFANPVWWNHCMLLS
B31: EGC139 (peptide)
peptide: TQVRCPFQNPIWWSHCMEML
B32: EGC167 (peptide)
peptide: NFYMCKVYPSELWHVCVETL
B33: EGC141 (peptide)
peptide: NFLMCQVYPSYKWHVCVEQL
B34: EGC166 (peptide)
peptide: KFQLCQVYPSERWHICVVTL
B35: EGC19 (peptide)
peptide: LWRWCVWARDCPQSS
B36: EGC165 (peptide)
peptide: NLLLCKVYPSGKWHVCFAPL
B37: EGC130 (peptide)
peptide: NFVMCQVYPSYTWHVCVGTL
B38: EGC133 (peptide)
peptide: TFMMCQVYPSLKWHVCIETG
B39: EGC1 (peptide)
peptide: VYQLCIKMWVCTWHG
B40: EGC135 (peptide)
peptide: SPVRCPFQNPIWYAHCMKIT
B41: EGC138 (peptide)
peptide: PQVRCPFQNPIWYSHCMKLM
B42: EGC40 (peptide)
peptide: LLNQCLQWAFHNCGCWN
B43: EGC101 (peptide)
peptide: SFVMCPVYNPKQWSVCMEIL
B44: EGC144 (peptide)
peptide: GFIMCQVYPSENWHVCLDRG
B45: EGC140 (peptide)
peptide: KLMLCQVYPSLKWHVCVEAS
B46: EGC164 (peptide)
peptide: KFILCQVYPSGKWHICTETL
B47: EGC20 (peptide)
peptide: IAREFCMNYQCLRLLR
B48: EGC93 (peptide)
peptide: SLVSCPVHNPIWWSHCMEIM
B49: EGC102 (peptide)
peptide: LFLMCLVYPSEKWHVCVETL
B50: EGC160 (peptide)
peptide: SEIRCPFKNPIWYAHCMKLI
B51: EGC2 (peptide)
peptide: DLVGCLLFSHVSCFSPL
B52: EGC143 (peptide)
peptide: TFFICQVYPSGKWHVCVDTV
B53: EGC136 (peptide)
peptide: SKVYCPFQNPIWFAKCIELM
B54: EGC48 (peptide)
peptide: WTHACVVWNMKQMEACTSLT
B55: EGC158 (peptide)
peptide: FKERCPFQNPIWYSRCMELI
B56: EGC94 (peptide)
peptide: GHRLCIWMQNFVDGHCAGLV
B57: EGC5 (peptide)
peptide: LLWRCELMPPWPYMCSEVD
B58: EGC132 (peptide)
peptide: KFMICRLYPSGNLHICVETS
B59: EGC155 (peptide)
peptide: GFVMCQVYPSQKWHVCLDTF
B60: EGC154 (peptide)
peptide: QFFMCQVYPSLRWSVCQVTL
B61: EGC142 (peptide)
peptide: RFLVCQVYPSLKWHVCVEKS
B62: EGC120 (peptide)
peptide: KFFMCQVYPSNRWAVCVETL
B63: EGC153 (peptide)
peptide: KFVMCQVYPSEKWHVCIAPL

Sequences of proteins named here, by UniProt entry; tags and fusion partners are left off. Residues count along the entry.
UniProt P21860, residues 20-643: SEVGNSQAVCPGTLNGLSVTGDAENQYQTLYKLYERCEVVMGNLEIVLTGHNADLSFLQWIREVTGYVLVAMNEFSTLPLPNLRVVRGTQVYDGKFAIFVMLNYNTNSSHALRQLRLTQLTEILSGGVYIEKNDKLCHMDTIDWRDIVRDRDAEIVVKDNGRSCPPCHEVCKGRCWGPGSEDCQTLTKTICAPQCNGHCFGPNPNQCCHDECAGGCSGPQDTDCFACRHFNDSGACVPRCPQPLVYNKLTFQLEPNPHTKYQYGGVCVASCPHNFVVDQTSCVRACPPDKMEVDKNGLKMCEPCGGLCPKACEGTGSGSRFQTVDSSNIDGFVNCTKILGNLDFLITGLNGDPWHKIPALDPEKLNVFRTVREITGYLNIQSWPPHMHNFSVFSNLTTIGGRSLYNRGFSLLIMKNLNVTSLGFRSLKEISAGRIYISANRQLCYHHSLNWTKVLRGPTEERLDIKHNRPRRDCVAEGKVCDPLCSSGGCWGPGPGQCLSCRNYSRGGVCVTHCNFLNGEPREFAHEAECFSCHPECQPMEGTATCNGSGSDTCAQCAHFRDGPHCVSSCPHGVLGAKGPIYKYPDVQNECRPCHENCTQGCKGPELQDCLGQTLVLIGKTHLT

biological target: ErbB3 (UniProt P21860); assay: MRD screen, Example 48

binding, binds:
B1, B2, B3, B4, B5, B6, B7, B8, B9, B10, B11, B12, B13, B14, B15, B16, B17, B18, B19, B20, B21, B22, B23, B24, B25, B26, B27, B28, B29, B30, B31, B32, B33, B34, B35, B36, B37, B38, B39, B40, B41, B42, B43, B44, B45, B46, B47, B48, B49, B50, B51, B52, B53, B54, B55, B56, B57, B58, B59, B60, B61, B62, B63
